Laboratory results as given in the supplement of paper PMC11006884.
Most of the targets with a hit are listed elsewhere, so they are rarer here than in the full data. This is a noisy data set. The list shows a part of the results, in another mix than the full data.

By UniProt entry, the sequences of proteins in these tests, tags left out. Where a name states a change or a piece, a line headed by the entry shows the natural chain unless it says otherwise.
UniProt Q9BRS8: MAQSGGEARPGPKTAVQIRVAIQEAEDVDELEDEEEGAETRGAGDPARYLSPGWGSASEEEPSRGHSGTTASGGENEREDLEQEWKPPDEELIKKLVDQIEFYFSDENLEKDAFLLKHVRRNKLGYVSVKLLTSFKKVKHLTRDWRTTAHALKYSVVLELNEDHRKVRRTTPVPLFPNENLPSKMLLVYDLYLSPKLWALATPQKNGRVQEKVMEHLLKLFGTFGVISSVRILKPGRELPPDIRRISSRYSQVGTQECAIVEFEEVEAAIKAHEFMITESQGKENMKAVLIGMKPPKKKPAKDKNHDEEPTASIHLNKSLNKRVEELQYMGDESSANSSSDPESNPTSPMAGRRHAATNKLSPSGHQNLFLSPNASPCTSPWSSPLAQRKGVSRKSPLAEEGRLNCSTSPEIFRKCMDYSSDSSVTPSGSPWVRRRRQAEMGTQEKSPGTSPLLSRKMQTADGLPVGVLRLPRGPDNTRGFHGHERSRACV
UniProt Q9H0A0: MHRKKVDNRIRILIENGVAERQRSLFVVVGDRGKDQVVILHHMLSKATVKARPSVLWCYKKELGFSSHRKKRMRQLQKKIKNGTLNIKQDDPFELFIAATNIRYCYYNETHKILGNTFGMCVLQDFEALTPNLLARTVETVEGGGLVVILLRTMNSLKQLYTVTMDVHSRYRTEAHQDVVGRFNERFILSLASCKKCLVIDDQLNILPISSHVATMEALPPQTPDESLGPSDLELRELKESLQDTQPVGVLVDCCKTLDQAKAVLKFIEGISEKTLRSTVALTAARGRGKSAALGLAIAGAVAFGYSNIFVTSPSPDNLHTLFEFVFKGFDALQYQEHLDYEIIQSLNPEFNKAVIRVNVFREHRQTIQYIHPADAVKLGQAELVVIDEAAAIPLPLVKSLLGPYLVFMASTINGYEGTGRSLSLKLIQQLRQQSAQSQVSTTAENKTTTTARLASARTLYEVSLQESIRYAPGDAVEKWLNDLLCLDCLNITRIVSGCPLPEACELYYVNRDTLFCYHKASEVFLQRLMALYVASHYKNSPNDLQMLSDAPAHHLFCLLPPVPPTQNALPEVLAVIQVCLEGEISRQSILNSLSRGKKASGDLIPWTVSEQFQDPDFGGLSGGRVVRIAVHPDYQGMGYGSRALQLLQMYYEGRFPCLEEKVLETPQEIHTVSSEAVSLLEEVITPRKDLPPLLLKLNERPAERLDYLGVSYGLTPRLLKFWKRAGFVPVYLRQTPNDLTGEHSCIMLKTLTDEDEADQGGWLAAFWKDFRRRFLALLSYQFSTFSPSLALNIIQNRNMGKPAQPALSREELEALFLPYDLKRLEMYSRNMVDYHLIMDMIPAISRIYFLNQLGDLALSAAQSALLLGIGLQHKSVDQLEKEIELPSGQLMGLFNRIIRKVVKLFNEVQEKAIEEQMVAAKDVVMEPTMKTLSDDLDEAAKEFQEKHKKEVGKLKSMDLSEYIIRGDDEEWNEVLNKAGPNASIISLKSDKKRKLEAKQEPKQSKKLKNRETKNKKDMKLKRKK
UniProt Q9C0J8: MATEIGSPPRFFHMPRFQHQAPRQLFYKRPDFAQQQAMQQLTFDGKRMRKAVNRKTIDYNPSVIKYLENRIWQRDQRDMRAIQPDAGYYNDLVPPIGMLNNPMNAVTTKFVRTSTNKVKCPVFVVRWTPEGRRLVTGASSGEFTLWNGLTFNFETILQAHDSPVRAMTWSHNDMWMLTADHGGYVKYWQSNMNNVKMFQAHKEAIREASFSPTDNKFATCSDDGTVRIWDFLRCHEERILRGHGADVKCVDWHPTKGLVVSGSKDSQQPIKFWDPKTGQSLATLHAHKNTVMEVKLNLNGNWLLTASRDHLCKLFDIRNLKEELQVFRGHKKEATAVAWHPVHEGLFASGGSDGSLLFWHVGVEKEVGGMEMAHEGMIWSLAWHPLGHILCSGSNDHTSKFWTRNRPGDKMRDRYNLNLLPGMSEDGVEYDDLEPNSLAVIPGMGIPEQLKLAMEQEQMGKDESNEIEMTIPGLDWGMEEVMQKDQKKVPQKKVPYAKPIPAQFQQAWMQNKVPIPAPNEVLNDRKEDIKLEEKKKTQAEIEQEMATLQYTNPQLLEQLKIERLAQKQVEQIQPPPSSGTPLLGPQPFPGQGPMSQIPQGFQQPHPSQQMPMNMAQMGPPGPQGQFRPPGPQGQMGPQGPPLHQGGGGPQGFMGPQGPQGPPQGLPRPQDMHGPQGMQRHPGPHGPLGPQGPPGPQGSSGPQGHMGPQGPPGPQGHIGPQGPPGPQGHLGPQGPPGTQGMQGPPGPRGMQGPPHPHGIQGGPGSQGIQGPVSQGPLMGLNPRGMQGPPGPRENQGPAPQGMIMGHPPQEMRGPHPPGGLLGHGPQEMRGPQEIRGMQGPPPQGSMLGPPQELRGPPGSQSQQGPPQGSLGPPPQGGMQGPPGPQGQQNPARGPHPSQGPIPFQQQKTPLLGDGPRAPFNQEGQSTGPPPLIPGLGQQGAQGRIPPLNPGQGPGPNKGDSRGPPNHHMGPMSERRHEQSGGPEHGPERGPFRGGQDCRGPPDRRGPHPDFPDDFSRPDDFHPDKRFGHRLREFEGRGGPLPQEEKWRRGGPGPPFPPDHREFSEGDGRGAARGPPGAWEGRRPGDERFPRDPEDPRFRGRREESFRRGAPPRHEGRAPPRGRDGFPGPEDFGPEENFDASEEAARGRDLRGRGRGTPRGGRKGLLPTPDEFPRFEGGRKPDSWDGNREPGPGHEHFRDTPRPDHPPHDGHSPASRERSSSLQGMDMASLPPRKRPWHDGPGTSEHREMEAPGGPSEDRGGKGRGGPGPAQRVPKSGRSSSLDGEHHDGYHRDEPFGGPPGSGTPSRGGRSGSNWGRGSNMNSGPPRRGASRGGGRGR
UniProt Q9BUM1: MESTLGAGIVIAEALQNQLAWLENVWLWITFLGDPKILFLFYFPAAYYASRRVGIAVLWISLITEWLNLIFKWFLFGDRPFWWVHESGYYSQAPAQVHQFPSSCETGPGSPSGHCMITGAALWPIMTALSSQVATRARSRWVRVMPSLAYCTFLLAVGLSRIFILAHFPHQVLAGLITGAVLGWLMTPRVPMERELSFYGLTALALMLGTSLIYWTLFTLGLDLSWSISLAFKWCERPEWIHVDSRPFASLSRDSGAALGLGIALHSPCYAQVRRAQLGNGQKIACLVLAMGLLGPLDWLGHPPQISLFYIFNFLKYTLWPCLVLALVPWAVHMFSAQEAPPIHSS
UniProt Q9BVG4: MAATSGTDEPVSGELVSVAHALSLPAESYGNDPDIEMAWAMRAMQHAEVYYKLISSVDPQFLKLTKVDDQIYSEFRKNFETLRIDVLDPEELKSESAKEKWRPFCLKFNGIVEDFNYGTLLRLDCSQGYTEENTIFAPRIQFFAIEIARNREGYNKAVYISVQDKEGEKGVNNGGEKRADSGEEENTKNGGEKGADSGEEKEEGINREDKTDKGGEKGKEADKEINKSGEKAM
UniProt Q9H0B6: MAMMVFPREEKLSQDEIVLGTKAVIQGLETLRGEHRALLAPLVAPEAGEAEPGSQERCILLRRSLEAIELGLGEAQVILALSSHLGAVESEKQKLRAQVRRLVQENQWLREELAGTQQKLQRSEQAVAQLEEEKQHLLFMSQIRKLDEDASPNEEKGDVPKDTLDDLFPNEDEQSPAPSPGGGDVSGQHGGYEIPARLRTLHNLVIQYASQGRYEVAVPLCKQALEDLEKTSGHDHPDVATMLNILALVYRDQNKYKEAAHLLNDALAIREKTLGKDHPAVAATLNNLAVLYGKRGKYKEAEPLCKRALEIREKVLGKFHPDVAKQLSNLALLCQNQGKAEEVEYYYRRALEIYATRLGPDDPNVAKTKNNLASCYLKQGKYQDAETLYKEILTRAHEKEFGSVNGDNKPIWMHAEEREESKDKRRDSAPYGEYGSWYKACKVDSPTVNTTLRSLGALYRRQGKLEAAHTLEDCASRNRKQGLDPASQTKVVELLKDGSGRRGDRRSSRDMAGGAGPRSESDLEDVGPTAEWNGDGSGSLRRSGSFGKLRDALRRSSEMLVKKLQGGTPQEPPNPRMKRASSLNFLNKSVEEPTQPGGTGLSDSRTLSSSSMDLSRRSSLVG
UniProt Q9BW92: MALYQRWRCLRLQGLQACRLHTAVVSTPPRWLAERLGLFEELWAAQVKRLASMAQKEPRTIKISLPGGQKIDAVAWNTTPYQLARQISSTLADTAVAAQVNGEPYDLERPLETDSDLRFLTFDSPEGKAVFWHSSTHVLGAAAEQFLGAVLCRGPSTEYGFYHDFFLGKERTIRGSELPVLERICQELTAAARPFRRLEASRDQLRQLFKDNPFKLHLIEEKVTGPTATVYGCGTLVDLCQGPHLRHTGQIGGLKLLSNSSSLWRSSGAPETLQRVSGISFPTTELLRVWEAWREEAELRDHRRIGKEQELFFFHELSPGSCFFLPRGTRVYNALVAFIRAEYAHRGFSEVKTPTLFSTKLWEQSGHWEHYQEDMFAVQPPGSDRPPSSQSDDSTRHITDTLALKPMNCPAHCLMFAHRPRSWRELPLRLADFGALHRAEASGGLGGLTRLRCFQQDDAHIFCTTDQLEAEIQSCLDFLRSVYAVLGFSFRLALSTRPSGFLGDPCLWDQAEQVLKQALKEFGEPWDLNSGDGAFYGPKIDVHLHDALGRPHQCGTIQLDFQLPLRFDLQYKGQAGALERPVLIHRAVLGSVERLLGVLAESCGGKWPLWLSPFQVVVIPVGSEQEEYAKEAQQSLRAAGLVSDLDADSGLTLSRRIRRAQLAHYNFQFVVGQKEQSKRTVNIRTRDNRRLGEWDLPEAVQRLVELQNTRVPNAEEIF
UniProt Q9BU23: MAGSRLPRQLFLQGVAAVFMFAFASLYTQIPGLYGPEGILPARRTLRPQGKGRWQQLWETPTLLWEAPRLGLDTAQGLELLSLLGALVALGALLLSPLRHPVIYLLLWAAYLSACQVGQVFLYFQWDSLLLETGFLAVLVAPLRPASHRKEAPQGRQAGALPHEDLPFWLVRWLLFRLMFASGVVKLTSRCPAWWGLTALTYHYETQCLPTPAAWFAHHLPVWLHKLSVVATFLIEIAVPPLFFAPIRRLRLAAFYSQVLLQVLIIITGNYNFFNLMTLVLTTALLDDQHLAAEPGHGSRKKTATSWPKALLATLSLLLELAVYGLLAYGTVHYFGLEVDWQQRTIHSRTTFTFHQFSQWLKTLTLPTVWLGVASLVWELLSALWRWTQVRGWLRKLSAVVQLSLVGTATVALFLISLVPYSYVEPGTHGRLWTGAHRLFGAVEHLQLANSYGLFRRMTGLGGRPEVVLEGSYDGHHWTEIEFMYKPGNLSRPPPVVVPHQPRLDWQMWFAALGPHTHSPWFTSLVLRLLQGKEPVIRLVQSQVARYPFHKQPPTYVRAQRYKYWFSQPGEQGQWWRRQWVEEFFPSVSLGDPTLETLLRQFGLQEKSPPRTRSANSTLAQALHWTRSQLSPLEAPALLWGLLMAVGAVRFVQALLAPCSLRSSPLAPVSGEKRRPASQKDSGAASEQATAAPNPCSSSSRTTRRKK
UniProt Q9H089: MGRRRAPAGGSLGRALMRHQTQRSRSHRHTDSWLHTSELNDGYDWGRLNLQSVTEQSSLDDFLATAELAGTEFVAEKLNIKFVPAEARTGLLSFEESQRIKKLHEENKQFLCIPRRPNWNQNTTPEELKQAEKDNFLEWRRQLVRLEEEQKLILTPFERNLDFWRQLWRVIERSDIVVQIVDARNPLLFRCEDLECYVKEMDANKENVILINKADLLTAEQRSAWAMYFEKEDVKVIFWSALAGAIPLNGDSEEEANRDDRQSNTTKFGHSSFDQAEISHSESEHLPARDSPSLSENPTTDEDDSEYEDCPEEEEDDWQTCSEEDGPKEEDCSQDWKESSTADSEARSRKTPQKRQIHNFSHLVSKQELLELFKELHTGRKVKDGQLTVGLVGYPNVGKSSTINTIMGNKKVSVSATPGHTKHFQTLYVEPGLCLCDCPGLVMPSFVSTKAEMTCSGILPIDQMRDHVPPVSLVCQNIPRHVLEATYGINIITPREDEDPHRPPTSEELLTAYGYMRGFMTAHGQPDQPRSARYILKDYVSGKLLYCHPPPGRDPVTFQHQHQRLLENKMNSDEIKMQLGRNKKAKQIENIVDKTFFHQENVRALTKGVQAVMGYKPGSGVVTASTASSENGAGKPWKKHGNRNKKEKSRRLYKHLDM
UniProt Q9BSD7: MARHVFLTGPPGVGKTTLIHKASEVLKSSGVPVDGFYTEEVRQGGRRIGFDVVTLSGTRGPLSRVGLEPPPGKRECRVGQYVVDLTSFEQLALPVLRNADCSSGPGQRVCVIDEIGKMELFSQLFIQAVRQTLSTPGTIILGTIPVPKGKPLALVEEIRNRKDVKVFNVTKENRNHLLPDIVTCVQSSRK
UniProt Q9H1K1: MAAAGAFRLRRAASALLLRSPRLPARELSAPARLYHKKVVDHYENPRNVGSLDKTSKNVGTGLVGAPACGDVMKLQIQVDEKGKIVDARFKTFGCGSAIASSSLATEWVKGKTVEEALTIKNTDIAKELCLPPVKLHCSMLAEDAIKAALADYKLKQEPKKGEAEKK

Compound: COC(=O)/C=C/c1ccccc1 [methyl cinnamate]
Assay: log2 ratio of iodoacetamide-alkyne labeling of the cysteine site, DMSO over compound (competition); higher = stronger covalent engagement of the cysteine by the compound, active = 1 or more
Conditions: 500 µM; treatment time 1 h; system: HEK293T cell lysate
Method in brief: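 The log2 competition ratio per cysteine is defined as mean reporter intensity in control channels over mean reporter intensity in compound channels. Lysate from HEK293T cells (2 mg/mL) received electrophile (500 µM) or vehicle for 1 h at ambient temperature, followed by iodoacetamide alkyne for 1 h. Samples were clicked to sCIP-TMT reagents, pooled, trypsin-digested overnight at 37 °C, streptavidin-enriched, acid-eluted and run on Orbitrap Eclipse LC-MS/MS with FAIMS, with quantification in FragPipe. Three replicates with duplicate channels were used, and any cysteine quantified in only one replicate was excluded.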

log2 ratio of iodoacetamide-alkyne labeling, inactive:
UniProt Q9BRS8_C416 0.17
NUDT9 C207 (UniProt Q9BW91) 0.199
TUBB6 C12 (UniProt Q9BUF5) -0.209
NAT10 C658 (UniProt Q9H0A0) 0.00927
WDR33 C220 (UniProt Q9C0J8) 0.116
PDCD2L C278 (UniProt Q9BRP1) 0.245
G6PC3 C269 (UniProt Q9BUM1) -0.048
UniProt Q9BVG4_C125 0.33
UniProt Q9BUH6_C180 0.247
PAPOLG C604 (UniProt Q9BWT3) 0.104
UniProt Q9BTY7_C51 0.0697
UniProt Q9H1B7_C504 0.307
HNRNPUL1 C487 (UniProt Q9BUJ2) -0.065
PDCD2L C100 (UniProt Q9BRP1) 0.0462
KLC2 C474 (UniProt Q9H0B6) 0.176
C7orf50 C107 (UniProt Q9BRJ6) -0.0202
TNKS1BP1 C232 (UniProt Q9C0C2) 0.046
TARS2 C322 (UniProt Q9BW92) 0.0776
FTO C326 (UniProt Q9C0B1) -0.0329
UBE2O C182 (UniProt Q9C0C9) 0.0311
PRKD2 C217 (UniProt Q9BZL6) 0.31
ACAT2 C65 (UniProt Q9BWD1) -0.087
MRPL37 C153 (UniProt Q9BZE1) 0.0654
UniProt Q9GZT3_C48 0.00622
UNC93B1 C583 (UniProt Q9H1C4) 0.392
HNRNPUL1 C532 (UniProt Q9BUJ2) 0.0891
UniProt Q9BXP5_C412 0.401
TBCD C1192 (UniProt Q9BTW9) 0.045
LMF2 C696 (UniProt Q9BU23) 0.404
FTO C397 (UniProt Q9C0B1) 0.193
ASPSCR1 C174 (UniProt Q9BZE9) -0.222
LSG1 C455 (UniProt Q9H089) -0.258
UBXN6 C125 (UniProt Q9BZV1) 0.155
UNK C383 (UniProt Q9C0B0) 0.354
ACAT2 C360 (UniProt Q9BWD1) 0.131
UniProt Q9BSD7_C101 0.279
TBCD C234 (UniProt Q9BTW9) 0.0302
ISCU C95 (UniProt Q9H1K1) 0.222

2 records picked at random from the list so far:
log2 ratio of iodoacetamide-alkyne labeling, inactive:
PAPOLG C604 (UniProt Q9BWT3) 0.104
LSG1 C455 (UniProt Q9H089) -0.258
